{"source": "PubChem BioAssay AID1259254, NCATS – 2017", "screen": "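Genome-wide screen for genes that prevent DNA re-replication in cancer cells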 (primary screen)", "cell system": "human HCT116 colorectal cancer cells", "reagent": "single siRNA against human genes", "time to read-out": "3 days", "read-out": "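Imaged Hoechst DNA stain sorts each cell into a cycle phase by DNA amount; per plate, G2 fraction set to 0% for non-targeting and 100% for GMNN siRNA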", "direction": "G2 robust z-score and G2 cells, % of GMNN control: higher = more G2 cells, more excess DNA replication", "call rule": "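Active siRNAs have a G2 robust z of 5 or more median absolute deviations over the median, which in these data means about 38% or higher of GMNN control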", "note": "This is one part, drawn at random, of about 59,000 reagents tested. Over the whole deposit, about 1,550 (2.6%) were called active. 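G2 share is only a proxy for re-replication; each gene was hit by three separate siRNAs, and active genes were retested.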 The numbers tell different reagents against one gene apart. Not all columns of the deposit are shown. The record does not give: the amount of reagent."}
{"Target gene":"KRT33A","reagent no.":1,"G2 robust z-score":0.0524,"G2 cells, % of GMNN control":3.34,"Outcome":"inactive"}
{"Target gene":"KRT33A","reagent no.":2,"G2 robust z-score":0.812,"G2 cells, % of GMNN control":8.68,"Outcome":"inactive"}
{"Target gene":"KRT33A","reagent no.":3,"G2 robust z-score":4.09,"G2 cells, % of GMNN control":31.8,"Outcome":"inactive"}
{"Target gene":"KIF7","reagent no.":1,"G2 robust z-score":1.11,"G2 cells, % of GMNN control":10.8,"Outcome":"inactive"}
{"Target gene":"KIF7","reagent no.":2,"G2 robust z-score":2.37,"G2 cells, % of GMNN control":19.6,"Outcome":"inactive"}
{"Target gene":"KIF7","reagent no.":3,"G2 robust z-score":3.16,"G2 cells, % of GMNN control":25.2,"Outcome":"inactive"}
{"Target gene":"FCN3","reagent no.":1,"G2 robust z-score":-0.647,"G2 cells, % of GMNN control":-1.58,"Outcome":"inactive"}
{"Target gene":"FCN3","reagent no.":2,"G2 robust z-score":0.0155,"G2 cells, % of GMNN control":3.08,"Outcome":"inactive"}
{"Target gene":"FCN3","reagent no.":3,"G2 robust z-score":-0.578,"G2 cells, % of GMNN control":-1.1,"Outcome":"inactive"}
{"Target gene":"FOXF2","reagent no.":1,"G2 robust z-score":-1.41,"G2 cells, % of GMNN control":-6.95,"Outcome":"inactive"}
{"Target gene":"FOXF2","reagent no.":2,"G2 robust z-score":0.627,"G2 cells, % of GMNN control":7.38,"Outcome":"inactive"}
{"Target gene":"FOXF2","reagent no.":3,"G2 robust z-score":0.852,"G2 cells, % of GMNN control":8.96,"Outcome":"inactive"}

Targets above whose target name starts with K or k (6):
{"Target gene":"KRT33A","reagent no.":1,"G2 robust z-score":0.0524,"G2 cells, % of GMNN control":3.34,"Outcome":"inactive"}
{"Target gene":"KRT33A","reagent no.":2,"G2 robust z-score":0.812,"G2 cells, % of GMNN control":8.68,"Outcome":"inactive"}
{"Target gene":"KRT33A","reagent no.":3,"G2 robust z-score":4.09,"G2 cells, % of GMNN control":31.8,"Outcome":"inactive"}
{"Target gene":"KIF7","reagent no.":1,"G2 robust z-score":1.11,"G2 cells, % of GMNN control":10.8,"Outcome":"inactive"}
{"Target gene":"KIF7","reagent no.":2,"G2 robust z-score":2.37,"G2 cells, % of GMNN control":19.6,"Outcome":"inactive"}
{"Target gene":"KIF7","reagent no.":3,"G2 robust z-score":3.16,"G2 cells, % of GMNN control":25.2,"Outcome":"inactive"}
